Protein sequences, listed by entry. Tags and fused reporters are not part of them. Lines headed by an entry give the natural chain unless they say otherwise; changes in a name come on top.
UniProt Q9UFC0: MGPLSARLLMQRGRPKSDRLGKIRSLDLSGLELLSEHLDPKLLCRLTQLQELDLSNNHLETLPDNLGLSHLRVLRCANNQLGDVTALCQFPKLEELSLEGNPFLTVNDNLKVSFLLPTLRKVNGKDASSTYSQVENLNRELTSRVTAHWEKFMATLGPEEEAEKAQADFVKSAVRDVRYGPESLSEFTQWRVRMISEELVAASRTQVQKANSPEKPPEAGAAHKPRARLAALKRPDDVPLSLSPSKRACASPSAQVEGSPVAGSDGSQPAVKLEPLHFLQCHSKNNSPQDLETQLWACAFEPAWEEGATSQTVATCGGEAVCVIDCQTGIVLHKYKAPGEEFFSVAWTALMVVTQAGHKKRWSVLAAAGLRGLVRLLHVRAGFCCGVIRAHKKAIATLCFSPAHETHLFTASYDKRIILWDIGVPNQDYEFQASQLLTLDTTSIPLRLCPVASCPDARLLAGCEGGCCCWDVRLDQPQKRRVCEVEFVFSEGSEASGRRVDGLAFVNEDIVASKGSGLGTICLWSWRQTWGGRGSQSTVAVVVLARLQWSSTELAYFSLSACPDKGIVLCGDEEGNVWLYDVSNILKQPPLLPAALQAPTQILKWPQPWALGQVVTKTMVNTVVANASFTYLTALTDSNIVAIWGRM
UniProt Q13257, whole entry: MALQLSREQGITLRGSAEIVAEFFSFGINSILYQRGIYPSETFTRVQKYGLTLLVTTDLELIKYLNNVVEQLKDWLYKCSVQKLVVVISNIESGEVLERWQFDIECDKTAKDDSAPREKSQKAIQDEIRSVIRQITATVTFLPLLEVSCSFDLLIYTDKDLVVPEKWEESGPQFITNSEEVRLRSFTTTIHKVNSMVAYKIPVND
UniProt P61244, whole entry: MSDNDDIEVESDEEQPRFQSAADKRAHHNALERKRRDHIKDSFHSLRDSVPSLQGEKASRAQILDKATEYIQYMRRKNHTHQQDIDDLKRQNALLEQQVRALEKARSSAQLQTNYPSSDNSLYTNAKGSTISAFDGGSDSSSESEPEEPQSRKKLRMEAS
UniProt Q99549: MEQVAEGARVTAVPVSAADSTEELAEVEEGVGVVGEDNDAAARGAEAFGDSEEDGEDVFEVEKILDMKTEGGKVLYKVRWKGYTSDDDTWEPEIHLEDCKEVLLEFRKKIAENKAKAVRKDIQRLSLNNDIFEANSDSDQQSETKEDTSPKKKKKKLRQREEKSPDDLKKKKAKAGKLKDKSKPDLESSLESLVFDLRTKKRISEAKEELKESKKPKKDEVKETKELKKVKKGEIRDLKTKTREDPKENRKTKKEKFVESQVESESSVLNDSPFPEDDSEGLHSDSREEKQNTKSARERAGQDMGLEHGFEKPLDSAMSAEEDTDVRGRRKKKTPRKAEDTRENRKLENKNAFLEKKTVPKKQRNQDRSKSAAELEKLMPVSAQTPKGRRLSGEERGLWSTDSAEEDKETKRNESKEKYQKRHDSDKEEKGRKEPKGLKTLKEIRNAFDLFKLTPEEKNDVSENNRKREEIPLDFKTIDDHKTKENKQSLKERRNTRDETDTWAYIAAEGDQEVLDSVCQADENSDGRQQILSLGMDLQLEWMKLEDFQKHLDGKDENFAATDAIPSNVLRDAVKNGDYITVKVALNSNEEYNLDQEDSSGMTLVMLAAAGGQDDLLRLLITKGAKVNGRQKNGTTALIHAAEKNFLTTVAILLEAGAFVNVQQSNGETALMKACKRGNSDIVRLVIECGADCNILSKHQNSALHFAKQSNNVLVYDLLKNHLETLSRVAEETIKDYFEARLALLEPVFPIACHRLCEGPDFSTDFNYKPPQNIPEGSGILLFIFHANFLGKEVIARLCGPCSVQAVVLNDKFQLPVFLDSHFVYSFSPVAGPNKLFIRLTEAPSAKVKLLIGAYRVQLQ
UniProt Q9NZB8: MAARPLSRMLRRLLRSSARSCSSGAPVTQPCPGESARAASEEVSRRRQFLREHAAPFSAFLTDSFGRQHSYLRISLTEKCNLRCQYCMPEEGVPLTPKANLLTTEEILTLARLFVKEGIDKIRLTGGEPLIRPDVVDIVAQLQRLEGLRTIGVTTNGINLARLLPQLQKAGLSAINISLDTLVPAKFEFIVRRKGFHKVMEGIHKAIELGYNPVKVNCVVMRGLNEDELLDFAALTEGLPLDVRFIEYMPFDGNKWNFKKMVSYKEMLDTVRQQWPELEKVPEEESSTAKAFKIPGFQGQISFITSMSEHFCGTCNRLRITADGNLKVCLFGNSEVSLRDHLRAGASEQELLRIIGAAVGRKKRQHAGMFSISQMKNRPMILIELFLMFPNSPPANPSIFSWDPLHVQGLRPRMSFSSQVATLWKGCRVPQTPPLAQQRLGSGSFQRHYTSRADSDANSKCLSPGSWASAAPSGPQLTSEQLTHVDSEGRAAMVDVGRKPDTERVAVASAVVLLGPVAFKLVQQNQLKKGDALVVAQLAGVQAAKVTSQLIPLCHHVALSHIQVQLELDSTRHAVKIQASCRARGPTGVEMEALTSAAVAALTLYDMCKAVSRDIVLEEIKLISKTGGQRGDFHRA
UniProt Q9Y546: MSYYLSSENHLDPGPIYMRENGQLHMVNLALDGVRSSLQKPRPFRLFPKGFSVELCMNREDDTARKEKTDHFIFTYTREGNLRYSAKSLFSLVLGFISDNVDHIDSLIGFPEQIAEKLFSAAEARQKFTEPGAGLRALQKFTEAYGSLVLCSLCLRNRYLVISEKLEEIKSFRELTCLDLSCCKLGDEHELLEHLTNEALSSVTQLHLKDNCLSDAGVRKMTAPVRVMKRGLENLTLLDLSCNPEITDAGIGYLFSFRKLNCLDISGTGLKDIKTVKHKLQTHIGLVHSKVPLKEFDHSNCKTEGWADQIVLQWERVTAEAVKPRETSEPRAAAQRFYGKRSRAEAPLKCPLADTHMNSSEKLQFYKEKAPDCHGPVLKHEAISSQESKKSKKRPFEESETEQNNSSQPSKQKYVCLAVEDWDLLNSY
UniProt P35580, whole entry: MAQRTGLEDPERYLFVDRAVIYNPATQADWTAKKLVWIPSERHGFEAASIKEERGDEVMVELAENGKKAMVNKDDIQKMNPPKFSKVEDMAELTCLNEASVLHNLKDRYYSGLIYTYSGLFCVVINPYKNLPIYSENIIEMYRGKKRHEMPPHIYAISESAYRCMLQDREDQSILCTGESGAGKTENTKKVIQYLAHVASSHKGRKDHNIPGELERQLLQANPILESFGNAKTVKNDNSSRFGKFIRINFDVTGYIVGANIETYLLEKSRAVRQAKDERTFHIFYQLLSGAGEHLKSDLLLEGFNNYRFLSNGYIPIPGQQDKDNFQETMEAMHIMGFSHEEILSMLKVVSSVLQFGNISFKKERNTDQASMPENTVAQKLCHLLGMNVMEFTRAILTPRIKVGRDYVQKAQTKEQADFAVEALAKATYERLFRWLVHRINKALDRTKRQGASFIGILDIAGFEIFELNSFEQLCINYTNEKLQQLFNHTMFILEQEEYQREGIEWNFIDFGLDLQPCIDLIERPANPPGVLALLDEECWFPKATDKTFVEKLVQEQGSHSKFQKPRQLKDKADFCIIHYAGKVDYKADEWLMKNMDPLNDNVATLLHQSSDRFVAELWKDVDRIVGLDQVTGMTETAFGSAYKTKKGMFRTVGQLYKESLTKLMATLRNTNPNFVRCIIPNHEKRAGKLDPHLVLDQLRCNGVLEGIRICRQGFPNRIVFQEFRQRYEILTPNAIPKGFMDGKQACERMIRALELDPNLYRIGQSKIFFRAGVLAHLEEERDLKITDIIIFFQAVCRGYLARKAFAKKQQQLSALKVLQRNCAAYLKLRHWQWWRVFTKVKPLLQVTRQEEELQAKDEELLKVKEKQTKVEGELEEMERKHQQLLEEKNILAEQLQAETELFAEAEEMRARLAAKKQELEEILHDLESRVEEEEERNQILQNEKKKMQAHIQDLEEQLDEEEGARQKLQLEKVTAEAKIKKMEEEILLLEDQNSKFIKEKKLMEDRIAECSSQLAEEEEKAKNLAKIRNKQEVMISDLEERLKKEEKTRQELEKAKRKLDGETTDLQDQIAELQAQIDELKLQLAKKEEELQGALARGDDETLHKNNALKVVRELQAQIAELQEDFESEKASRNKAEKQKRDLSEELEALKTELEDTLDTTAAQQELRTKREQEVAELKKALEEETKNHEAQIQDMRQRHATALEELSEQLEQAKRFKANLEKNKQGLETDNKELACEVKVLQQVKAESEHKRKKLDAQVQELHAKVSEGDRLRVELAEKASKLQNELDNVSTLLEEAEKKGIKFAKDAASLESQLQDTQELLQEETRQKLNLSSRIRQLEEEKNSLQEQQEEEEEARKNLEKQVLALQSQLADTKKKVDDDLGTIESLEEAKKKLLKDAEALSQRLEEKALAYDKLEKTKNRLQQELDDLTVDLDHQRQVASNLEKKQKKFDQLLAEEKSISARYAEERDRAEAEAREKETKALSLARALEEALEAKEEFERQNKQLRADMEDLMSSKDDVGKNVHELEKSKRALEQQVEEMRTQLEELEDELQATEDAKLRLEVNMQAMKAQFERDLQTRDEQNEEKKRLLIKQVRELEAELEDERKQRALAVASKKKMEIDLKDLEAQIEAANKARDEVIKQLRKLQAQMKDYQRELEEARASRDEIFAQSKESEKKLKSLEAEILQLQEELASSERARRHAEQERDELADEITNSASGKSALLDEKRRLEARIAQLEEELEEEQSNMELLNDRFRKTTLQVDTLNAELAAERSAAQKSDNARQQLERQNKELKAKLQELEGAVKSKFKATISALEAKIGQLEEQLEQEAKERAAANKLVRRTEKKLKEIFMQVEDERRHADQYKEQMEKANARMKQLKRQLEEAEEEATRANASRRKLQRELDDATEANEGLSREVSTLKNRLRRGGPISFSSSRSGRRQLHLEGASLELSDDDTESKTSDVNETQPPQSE
UniProt Q99836, whole entry: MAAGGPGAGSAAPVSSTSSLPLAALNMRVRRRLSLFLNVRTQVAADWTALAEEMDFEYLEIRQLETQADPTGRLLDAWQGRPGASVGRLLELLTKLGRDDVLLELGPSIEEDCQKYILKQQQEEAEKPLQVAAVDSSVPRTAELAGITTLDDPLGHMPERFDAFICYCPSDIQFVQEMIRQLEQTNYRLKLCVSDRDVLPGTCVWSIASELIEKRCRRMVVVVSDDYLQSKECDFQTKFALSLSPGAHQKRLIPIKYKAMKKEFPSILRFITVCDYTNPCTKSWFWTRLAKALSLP
UniProt O00754: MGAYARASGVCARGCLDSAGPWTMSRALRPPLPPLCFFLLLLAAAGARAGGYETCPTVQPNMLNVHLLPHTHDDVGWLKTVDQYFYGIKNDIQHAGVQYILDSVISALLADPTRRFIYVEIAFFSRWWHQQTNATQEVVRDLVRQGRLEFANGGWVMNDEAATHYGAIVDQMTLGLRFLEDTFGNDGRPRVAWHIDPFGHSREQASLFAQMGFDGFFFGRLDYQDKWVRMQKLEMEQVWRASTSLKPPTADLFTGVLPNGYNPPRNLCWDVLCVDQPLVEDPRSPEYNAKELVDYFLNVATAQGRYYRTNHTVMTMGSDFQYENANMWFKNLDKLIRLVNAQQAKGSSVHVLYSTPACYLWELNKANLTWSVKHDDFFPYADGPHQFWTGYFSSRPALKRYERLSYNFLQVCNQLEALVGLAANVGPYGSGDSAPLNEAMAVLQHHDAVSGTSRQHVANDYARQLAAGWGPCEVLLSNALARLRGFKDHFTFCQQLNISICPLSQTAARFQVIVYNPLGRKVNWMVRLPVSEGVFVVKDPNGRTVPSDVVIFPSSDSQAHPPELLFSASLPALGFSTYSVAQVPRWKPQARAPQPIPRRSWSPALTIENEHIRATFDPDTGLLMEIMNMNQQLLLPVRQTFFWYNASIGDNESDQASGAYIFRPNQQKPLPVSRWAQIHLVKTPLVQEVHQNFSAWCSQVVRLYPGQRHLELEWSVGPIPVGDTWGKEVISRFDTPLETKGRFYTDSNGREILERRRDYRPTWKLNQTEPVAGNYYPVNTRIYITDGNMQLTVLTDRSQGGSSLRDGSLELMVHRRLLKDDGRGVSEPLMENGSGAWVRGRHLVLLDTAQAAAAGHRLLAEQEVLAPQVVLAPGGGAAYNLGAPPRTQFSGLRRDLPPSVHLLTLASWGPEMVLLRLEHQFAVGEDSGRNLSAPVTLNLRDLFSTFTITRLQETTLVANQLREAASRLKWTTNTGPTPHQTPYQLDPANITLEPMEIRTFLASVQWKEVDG

The other results are listed elsewhere or left out.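 Rule for the calls: active = dose-dependent thermal stabilisation significant by F-test of dose-response against flat model at 10% FDR; inactive = not significant.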
What follows are targets tested with Nc1nc2c(ncn2[C@@H]2O[C@H](COP(=O)(O)OP(=O)(O)OP(=O)(O)O)[C@@H](O)[C@H]2O)c(=O)[nH]1 (assay: dose-dependent thermal stabilisation call (2D-TPP, DLPTP, 10% FDR) (binary (1 = stabilised)); higher = stabilised by the compound). Settings: system: Jurkat gel-filtered lysate; concentration range 1-500 µM.
With MAP2K4 (UniProt P45985) the “dose-dependent thermal stabilisation call” value was active: 1. For LRWD1 (UniProt Q9UFC0), the “dose-dependent thermal stabilisation call” value was active: 1. MACF1 (UniProt Q9UPN3) was tested, and the “dose-dependent thermal stabilisation call” value was inactive: 0. With MEPCE (UniProt Q7L2J0) the “dose-dependent thermal stabilisation call” value was inactive: 0. For MPHOSPH9 (UniProt Q99550), the “dose-dependent thermal stabilisation call” value was inactive: 0. LYSMD2 (UniProt Q8IV50) was tested, and the “dose-dependent thermal stabilisation call” value was inactive: 0. For MED24 (UniProt O75448), the “dose-dependent thermal stabilisation call” value was inactive: 0. In the case of MARCKSL1 (UniProt P49006), the “dose-dependent thermal stabilisation call” value is reported as inactive: 0. With MAST4 (UniProt O15021) the “dose-dependent thermal stabilisation call” value was inactive: 0. LSM14A (UniProt Q8ND56) was tested, and the “dose-dependent thermal stabilisation call” value was inactive: 0. For MAPRE2 (UniProt Q15555), the “dose-dependent thermal stabilisation call” value was inactive: 0. With MOV10 (UniProt Q9HCE1) the “dose-dependent thermal stabilisation call” value was inactive: 0. For MAPK12 (UniProt P53778), the “dose-dependent thermal stabilisation call” value was inactive: 0. With MDH1 (UniProt P40925) the “dose-dependent thermal stabilisation call” value was active: 1. For MAD2L1 (UniProt Q13257), the “dose-dependent thermal stabilisation call” value was inactive: 0. With MAX (UniProt P61244) the “dose-dependent thermal stabilisation call” value was inactive: 0. With MGMT (UniProt P16455) the “dose-dependent thermal stabilisation call” value was inactive: 0. In the case of MYSM1 (UniProt Q5VVJ2), the “dose-dependent thermal stabilisation call” value is reported as active: 1. MPHOSPH8 (UniProt Q99549) was tested, and the “dose-dependent thermal stabilisation call” value was inactive: 0. For MDM4 (UniProt O15151), the “dose-dependent thermal stabilisation call” value was inactive: 0. MOCS1 (UniProt Q9NZB8) was tested, and the “dose-dependent thermal stabilisation call” value was inactive: 0. In the case of METTL21A (UniProt Q8WXB1), the “dose-dependent thermal stabilisation call” value is reported as inactive: 0. For LRRC42 (UniProt Q9Y546), the “dose-dependent thermal stabilisation call” value was active: 1. For MED16 (UniProt Q9Y2X0), the “dose-dependent thermal stabilisation call” value was inactive: 0. In the case of MINK1 (UniProt Q8N4C8), the “dose-dependent thermal stabilisation call” value is reported as inactive: 0. In the case of MYH10 (UniProt P35580), the “dose-dependent thermal stabilisation call” value is reported as inactive: 0. With MORF4L1 (UniProt Q9UBU8) the “dose-dependent thermal stabilisation call” value was inactive: 0. MYD88 (UniProt Q99836) was tested, and the “dose-dependent thermal stabilisation call” value was inactive: 0. With MMS19 (UniProt Q96T76) the “dose-dependent thermal stabilisation call” value was active: 1. With MICALL1 (UniProt Q8N3F8) the “dose-dependent thermal stabilisation call” value was inactive: 0. With MAT2A (UniProt P31153) the “dose-dependent thermal stabilisation call” value was inactive: 0. For MMAB (UniProt Q96EY8), the “dose-dependent thermal stabilisation call” value was inactive: 0. MBD2 (UniProt Q9UBB5) was tested, and the “dose-dependent thermal stabilisation call” value was inactive: 0. For MAN2B1 (UniProt O00754), the “dose-dependent thermal stabilisation call” value was inactive: 0. With MYCBP2 (UniProt O75592) the “dose-dependent thermal stabilisation call” value was inactive: 0. With MANF (UniProt P55145) the “dose-dependent thermal stabilisation call” value was inactive: 0.

From the supplement of paper PMC7666118
